Source: the supplement of paper PMC7877785
± gives the uncertainty stated by the source. Many entries were measured with a wide error.

Assay: self-splicing fitness, log relative to wild type (ln ratio); higher = more splicing; Tetrahymena group I intron in knt gene, E. coli kanamycin selection, DiMSum; sequences stand for … in CUCUCU…GGAGGGAAAAGUUAUCAGGCAUGCACCUGGUAGCUAGUCUUUAAACCAAUAGAUUGCAUCGGUUUAAAAGGCAAGACCGUCAAAUUGCGGGAAAGGGGUCAACAGCCGUUCAGUACCAAGUCUCAGGGGAAACUUUGAGAUGGCCUUGCAAAGGGUAUGGUAAUAAGCUGACGGACAUGGUCCUAACCACGCAGCCAAGUCCUAAGUCAACAGAUCUUCUGUUGAUAUGGAUGCAGUUCACAGACUAAAUGUCGGUCGGGGAAGAUGUAUUCUUCUCAUAAGAUAUAGUCGGACCUCUCCUUAAUGGGAGCUAGCGGAUGAAGUGAUGCAACACUGGAGCCGCUGGGAACUAAUUUGUAUGCGAAAGUAUAUUGAUUAGUUUUGGAGUACUCGUGGUCG
How it was run: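 DiMSum derived fitness as the error-weighted combination of fold changes across replicates, kanamycin versus no kanamycin, normalised to wild type. E. coli BL21(DE3) held the library, which randomised all eight P1ex-region intron nucleotides within the knt kanamycin-resistance gene on pET-22b(+). Six replicate transformations grew overnight at 37°C or 30°C on LB agar with or without 25 μg/mL kanamycin, also containing 100 μg/mL carbenicillin, 50 μM IPTG and 0.2% rhamnose, and pooled colonies were amplicon-sequenced on an Illumina HiSeq 2500.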

CUUCAGCAAUAUUACGAUCA
self-splicing fitness (ln) (30 °C): -3.23 ± 0.53

CUUGAGCAAUAUUACGUUUC
self-splicing fitness (ln) (30 °C): -3.44 ± 0.27
self-splicing fitness (ln) (37 °C): -2.68 ± 0.36

CUUAAGCAAUAUUACGUCGC
self-splicing fitness (ln) (30 °C): -5.15 ± 0.51

CAGGAGCAAUAUUACGUGAU
self-splicing fitness (ln) (30 °C): -4.53 ± 0.46
self-splicing fitness (ln) (37 °C): -1.95 ± 0.23

GCGGAGCAAUAUUACGAGGU
self-splicing fitness (ln) (37 °C): -4.04 ± 0.72

UUGAAGCAAUAUUACGAACC
self-splicing fitness (ln) (30 °C): -1.68 ± 0.24
self-splicing fitness (ln) (37 °C): -1.77 ± 0.44

CGAGAGCAAUAUUACGCUGU
self-splicing fitness (ln) (30 °C): -5.46 ± 0.71

ACCGAGCAAUAUUACGAGAA
self-splicing fitness (ln) (30 °C): -2.51 ± 0.53

AUGUAGCAAUAUUACGAAGA
self-splicing fitness (ln) (30 °C): -3.63 ± 0.73

AUGGAGCAAUAUUACGGAAG
self-splicing fitness (ln) (37 °C): -2.95 ± 0.61

UAGUAGCAAUAUUACGGUAC
self-splicing fitness (ln) (37 °C): -1.39 ± 0.62

CAAUAGCAAUAUUACGCGGC
self-splicing fitness (ln) (37 °C): -3.8 ± 0.73

UGCAAGCAAUAUUACGUACU
self-splicing fitness (ln) (30 °C): -0.936 ± 0.13
self-splicing fitness (ln) (37 °C): 0.0223 ± 0.17

GGCUAGCAAUAUUACGCCCU
self-splicing fitness (ln) (37 °C): 0.0828 ± 0.36

CCAGAGCAAUAUUACGGGCU
self-splicing fitness (ln) (37 °C): -3.65 ± 0.59

UUAAAGCAAUAUUACGUUUC
self-splicing fitness (ln) (30 °C): -3.92 ± 0.39
self-splicing fitness (ln) (37 °C): -1.18 ± 0.31

GGGGAGCAAUAUUACGCGAC
self-splicing fitness (ln) (37 °C): -0.101 ± 0.82

UAACAGCAAUAUUACGGUCG
self-splicing fitness (ln) (30 °C): -0.363 ± 0.04
self-splicing fitness (ln) (37 °C): -0.0859 ± 0.056

GUCCAGCAAUAUUACGGGCC
self-splicing fitness (ln) (30 °C): -4.75 ± 0.72
self-splicing fitness (ln) (37 °C): -3.05 ± 0.6

GGCUAGCAAUAUUACGAAGC
self-splicing fitness (ln) (30 °C): -3.06 ± 1.1
self-splicing fitness (ln) (37 °C): -2.1 ± 0.51

AAGGAGCAAUAUUACGGAUG
self-splicing fitness (ln) (30 °C): -3.8 ± 0.21
self-splicing fitness (ln) (37 °C): -3.29 ± 0.35

AGCAAGCAAUAUUACGUCGG
self-splicing fitness (ln) (30 °C): -2.93 ± 0.19
self-splicing fitness (ln) (37 °C): -1.59 ± 0.19

UCUCAGCAAUAUUACGGUCC
self-splicing fitness (ln) (37 °C): -3.52 ± 0.52

GCUGAGCAAUAUUACGAAUG
self-splicing fitness (ln) (30 °C): -2.91 ± 0.53

AUACAGCAAUAUUACGCAAU
self-splicing fitness (ln) (30 °C): -1.93 ± 0.15
self-splicing fitness (ln) (37 °C): -1.02 ± 0.16

AGCCAGCAAUAUUACGCCAC
self-splicing fitness (ln) (30 °C): -3.35 ± 0.73

UAUGAGCAAUAUUACGACAG
self-splicing fitness (ln) (30 °C): -3.6 ± 0.53

CCUGAGCAAUAUUACGCAGU
self-splicing fitness (ln) (30 °C): -2.91 ± 0.2
self-splicing fitness (ln) (37 °C): -2.84 ± 0.28

UUAUAGCAAUAUUACGUCGU
self-splicing fitness (ln) (37 °C): -2.69 ± 0.61

UACCAGCAAUAUUACGUCGU
self-splicing fitness (ln) (30 °C): -2.09 ± 0.09
self-splicing fitness (ln) (37 °C): -2.14 ± 0.12

CAGGAGCAAUAUUACGUUCC
self-splicing fitness (ln) (30 °C): -3.33 ± 0.23
self-splicing fitness (ln) (37 °C): -2.04 ± 0.27

UCUUAGCAAUAUUACGCGAA
self-splicing fitness (ln) (30 °C): -2.63 ± 0.5
self-splicing fitness (ln) (37 °C): -1.19 ± 0.3

CGGGAGCAAUAUUACGAAAA
self-splicing fitness (ln) (30 °C): -2.56 ± 0.65
self-splicing fitness (ln) (37 °C): -1.43 ± 0.55

GGCGAGCAAUAUUACGCCCU
self-splicing fitness (ln) (30 °C): -1.91 ± 0.66
self-splicing fitness (ln) (37 °C): -1.64 ± 0.84

GAUAAGCAAUAUUACGCUUC
self-splicing fitness (ln) (30 °C): -5.25 ± 0.58

AGCGAGCAAUAUUACGCAGC
self-splicing fitness (ln) (37 °C): -1.52 ± 0.5

AAAAAGCAAUAUUACGCCUC
self-splicing fitness (ln) (30 °C): -3.48 ± 0.6

ACAAAGCAAUAUUACGUAUU
self-splicing fitness (ln) (30 °C): -1.94 ± 0.086
self-splicing fitness (ln) (37 °C): -1.18 ± 0.11

UCAUAGCAAUAUUACGGCCA
self-splicing fitness (ln) (30 °C): -1.68 ± 0.87

UGGCAGCAAUAUUACGAUUC
self-splicing fitness (ln) (30 °C): -4.41 ± 0.59

GAAGAGCAAUAUUACGAUCG
self-splicing fitness (ln) (30 °C): -2.28 ± 0.72
self-splicing fitness (ln) (37 °C): -1.15 ± 0.75

GGACAGCAAUAUUACGUGCA
self-splicing fitness (ln) (30 °C): -0.37 ± 0.085
self-splicing fitness (ln) (37 °C): -0.64 ± 0.09

AAAGAGCAAUAUUACGGAAC
self-splicing fitness (ln) (30 °C): -4.97 ± 0.72

GGCCAGCAAUAUUACGUAAA
self-splicing fitness (ln) (30 °C): -1.26 ± 0.11
self-splicing fitness (ln) (37 °C): -0.35 ± 0.14

GCCGAGCAAUAUUACGUCAA
self-splicing fitness (ln) (30 °C): -4.59 ± 0.59

CAAUAGCAAUAUUACGCGGA
self-splicing fitness (ln) (30 °C): -3.59 ± 0.35
self-splicing fitness (ln) (37 °C): -2.05 ± 0.16

GACUAGCAAUAUUACGCCGG
self-splicing fitness (ln) (30 °C): -4.67 ± 1

ACUGAGCAAUAUUACGUAUC
self-splicing fitness (ln) (30 °C): -4.78 ± 1

GCAGAGCAAUAUUACGUCAA
self-splicing fitness (ln) (37 °C): -2.66 ± 0.54

UUGAAGCAAUAUUACGGCAU
self-splicing fitness (ln) (30 °C): -0.14 ± 0.06
self-splicing fitness (ln) (37 °C): 1.08 ± 0.08

AUGUAGCAAUAUUACGGCAC
self-splicing fitness (ln) (30 °C): -1.59 ± 0.18
self-splicing fitness (ln) (37 °C): 0.329 ± 0.18

UCAAAGCAAUAUUACGUCCG
self-splicing fitness (ln) (30 °C): -0.781 ± 0.12
self-splicing fitness (ln) (37 °C): -0.625 ± 0.16

ACUUAGCAAUAUUACGUGGA
self-splicing fitness (ln) (30 °C): -2.47 ± 0.13
self-splicing fitness (ln) (37 °C): -2.7 ± 0.16

GGGGAGCAAUAUUACGUCUC
self-splicing fitness (ln) (37 °C): -1.82 ± 0.54

CUGUAGCAAUAUUACGGUAC
self-splicing fitness (ln) (30 °C): -3.7 ± 0.73
self-splicing fitness (ln) (37 °C): -2.59 ± 0.28

CUGGAGCAAUAUUACGUGCC
self-splicing fitness (ln) (37 °C): -1.47 ± 1.2

GACGAGCAAUAUUACGAGCG
self-splicing fitness (ln) (37 °C): -1.79 ± 1.2

AGGGAGCAAUAUUACGGUUC
self-splicing fitness (ln) (30 °C): -4.3 ± 0.73

GCGGAGCAAUAUUACGGGAC
self-splicing fitness (ln) (30 °C): -2.82 ± 0.51
self-splicing fitness (ln) (37 °C): -0.73 ± 1

UGCAAGCAAUAUUACGGCUU
self-splicing fitness (ln) (30 °C): -4.56 ± 0.52

GUAUAGCAAUAUUACGUUGC
self-splicing fitness (ln) (37 °C): -3.27 ± 0.52

CAGUAGCAAUAUUACGUCCC
self-splicing fitness (ln) (30 °C): -3.1 ± 0.67

CAAGAGCAAUAUUACGGGCC
self-splicing fitness (ln) (30 °C): -4.91 ± 0.51

AUCGAGCAAUAUUACGACCG
self-splicing fitness (ln) (30 °C): -3.85 ± 0.6

CCUUAGCAAUAUUACGGACA
self-splicing fitness (ln) (37 °C): -2.47 ± 0.63

AUGGAGCAAUAUUACGCGCC
self-splicing fitness (ln) (30 °C): -2.29 ± 0.61

UUUUAGCAAUAUUACGGGCU
self-splicing fitness (ln) (37 °C): -0.234 ± 1.4

CGGGAGCAAUAUUACGUGGG
self-splicing fitness (ln) (37 °C): -2.84 ± 0.53

UCUUAGCAAUAUUACGUUCC
self-splicing fitness (ln) (37 °C): -2.23 ± 0.5

UUUGAGCAAUAUUACGAGCG
self-splicing fitness (ln) (30 °C): -3.88 ± 1.1

GUUUAGCAAUAUUACGGGUU
self-splicing fitness (ln) (30 °C): -3.23 ± 0.6

CCAAAGCAAUAUUACGAAGC
self-splicing fitness (ln) (37 °C): -2.02 ± 0.54

CGGUAGCAAUAUUACGUCAA
self-splicing fitness (ln) (37 °C): -1.18 ± 0.52

GGAGAGCAAUAUUACGGAGU
self-splicing fitness (ln) (30 °C): -4.72 ± 0.59

GCGGAGCAAUAUUACGCGAA
self-splicing fitness (ln) (30 °C): -4.26 ± 1

UCUAAGCAAUAUUACGCUCA
self-splicing fitness (ln) (30 °C): -3.48 ± 1.1
self-splicing fitness (ln) (37 °C): -3.71 ± 0.6

CAACAGCAAUAUUACGUGGA
self-splicing fitness (ln) (30 °C): -3.08 ± 0.13
self-splicing fitness (ln) (37 °C): -2.08 ± 0.096

GUACAGCAAUAUUACGAGUG
self-splicing fitness (ln) (30 °C): -3.17 ± 0.34
self-splicing fitness (ln) (37 °C): -1.25 ± 0.18

UCGCAGCAAUAUUACGGGAC
self-splicing fitness (ln) (30 °C): -2.84 ± 0.55
self-splicing fitness (ln) (37 °C): -1.32 ± 0.62

GCGGAGCAAUAUUACGUUUA
self-splicing fitness (ln) (30 °C): -2.11 ± 0.57

AUGGAGCAAUAUUACGUGCU
self-splicing fitness (ln) (30 °C): -3.19 ± 1.2

CAUCAGCAAUAUUACGCCUC
self-splicing fitness (ln) (30 °C): -3.83 ± 0.52

CCGAAGCAAUAUUACGCAGG
self-splicing fitness (ln) (37 °C): -2.18 ± 0.76

GAGCAGCAAUAUUACGCUAU
self-splicing fitness (ln) (30 °C): -2.73 ± 0.27
self-splicing fitness (ln) (37 °C): -1.93 ± 0.17

UGAAAGCAAUAUUACGCGAA
self-splicing fitness (ln) (30 °C): -1.52 ± 0.17
self-splicing fitness (ln) (37 °C): -1.05 ± 0.2

AGUCAGCAAUAUUACGCGCU
self-splicing fitness (ln) (30 °C): -3.02 ± 0.14
self-splicing fitness (ln) (37 °C): -1.86 ± 0.21

AUGCAGCAAUAUUACGGGGU
self-splicing fitness (ln) (30 °C): -3.71 ± 0.17
self-splicing fitness (ln) (37 °C): -2.88 ± 0.18

AAAGAGCAAUAUUACGCCCG
self-splicing fitness (ln) (37 °C): -0.0848 ± 1.2

GGCUAGCAAUAUUACGGAGA
self-splicing fitness (ln) (37 °C): -2.67 ± 0.54

UACCAGCAAUAUUACGCAUU
self-splicing fitness (ln) (30 °C): -2.42 ± 0.092
self-splicing fitness (ln) (37 °C): -0.373 ± 0.078

GCCAAGCAAUAUUACGGUCG
self-splicing fitness (ln) (30 °C): -3.19 ± 0.13
self-splicing fitness (ln) (37 °C): -2.27 ± 0.17

GCGAAGCAAUAUUACGGGUC
self-splicing fitness (ln) (30 °C): -5.35 ± 1

GGAUAGCAAUAUUACGCCGG
self-splicing fitness (ln) (30 °C): -4 ± 1

UCGGAGCAAUAUUACGAUGA
self-splicing fitness (ln) (30 °C): -0.946 ± 0.15
self-splicing fitness (ln) (37 °C): -1.11 ± 0.16

GAUAAGCAAUAUUACGACUC
self-splicing fitness (ln) (30 °C): 0.0338 ± 0.1
self-splicing fitness (ln) (37 °C): 0.785 ± 0.13
